Measurements from “University of Dundee, Small-Polar-MMV Screening Library” (2021), ChEMBL document CHEMBL3988442.

The chains behind the UniProt entries cited, without tags or fusion partners. Residues count along the entry.
UniProt P9WNZ1, whole entry: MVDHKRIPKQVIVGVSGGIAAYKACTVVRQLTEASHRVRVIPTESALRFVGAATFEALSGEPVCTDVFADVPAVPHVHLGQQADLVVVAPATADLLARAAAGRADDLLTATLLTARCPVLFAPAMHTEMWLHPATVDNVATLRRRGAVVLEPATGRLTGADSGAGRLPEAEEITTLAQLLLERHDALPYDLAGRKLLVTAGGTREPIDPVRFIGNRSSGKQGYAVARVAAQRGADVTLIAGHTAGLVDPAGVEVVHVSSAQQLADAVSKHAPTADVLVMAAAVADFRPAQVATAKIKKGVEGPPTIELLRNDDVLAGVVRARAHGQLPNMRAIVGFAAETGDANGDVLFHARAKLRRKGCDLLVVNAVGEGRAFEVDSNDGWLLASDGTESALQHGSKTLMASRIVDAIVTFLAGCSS
UniProt P9WFT3, whole entry: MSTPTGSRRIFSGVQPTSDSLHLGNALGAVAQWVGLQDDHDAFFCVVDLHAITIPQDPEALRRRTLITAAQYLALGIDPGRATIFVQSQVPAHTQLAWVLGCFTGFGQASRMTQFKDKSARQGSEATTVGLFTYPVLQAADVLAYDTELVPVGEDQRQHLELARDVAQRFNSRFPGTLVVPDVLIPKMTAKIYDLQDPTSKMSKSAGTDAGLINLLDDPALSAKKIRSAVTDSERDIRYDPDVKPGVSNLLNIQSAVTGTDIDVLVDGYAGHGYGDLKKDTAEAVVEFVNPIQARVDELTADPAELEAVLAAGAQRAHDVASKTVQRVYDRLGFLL
UniProt P9WPC5, whole entry: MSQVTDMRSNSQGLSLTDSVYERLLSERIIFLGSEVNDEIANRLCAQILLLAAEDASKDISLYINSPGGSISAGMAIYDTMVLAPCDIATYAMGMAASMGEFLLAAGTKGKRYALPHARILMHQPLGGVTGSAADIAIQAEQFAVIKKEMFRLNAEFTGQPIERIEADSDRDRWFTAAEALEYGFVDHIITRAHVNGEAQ
UniProt P9WPC3, whole entry partner: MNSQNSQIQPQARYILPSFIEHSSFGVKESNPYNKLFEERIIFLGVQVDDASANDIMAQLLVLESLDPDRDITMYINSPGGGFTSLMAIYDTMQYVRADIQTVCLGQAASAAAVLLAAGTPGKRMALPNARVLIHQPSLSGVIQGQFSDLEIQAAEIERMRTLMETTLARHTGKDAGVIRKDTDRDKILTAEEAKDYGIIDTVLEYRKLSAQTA
UniProt A4I591, 1-473: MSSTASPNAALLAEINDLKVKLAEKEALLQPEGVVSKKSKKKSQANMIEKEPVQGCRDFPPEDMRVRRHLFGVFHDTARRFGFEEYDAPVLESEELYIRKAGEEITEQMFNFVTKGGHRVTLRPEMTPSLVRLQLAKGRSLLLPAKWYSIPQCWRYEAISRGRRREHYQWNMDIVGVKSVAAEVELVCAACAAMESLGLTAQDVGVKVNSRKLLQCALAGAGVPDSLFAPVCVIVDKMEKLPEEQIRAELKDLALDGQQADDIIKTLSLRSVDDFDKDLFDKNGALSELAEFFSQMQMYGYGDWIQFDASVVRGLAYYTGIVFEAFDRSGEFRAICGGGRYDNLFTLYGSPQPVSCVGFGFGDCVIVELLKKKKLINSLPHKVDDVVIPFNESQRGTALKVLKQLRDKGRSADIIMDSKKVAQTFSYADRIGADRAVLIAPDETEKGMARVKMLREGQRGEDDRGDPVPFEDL
UniProt Q4DA54, 1-478: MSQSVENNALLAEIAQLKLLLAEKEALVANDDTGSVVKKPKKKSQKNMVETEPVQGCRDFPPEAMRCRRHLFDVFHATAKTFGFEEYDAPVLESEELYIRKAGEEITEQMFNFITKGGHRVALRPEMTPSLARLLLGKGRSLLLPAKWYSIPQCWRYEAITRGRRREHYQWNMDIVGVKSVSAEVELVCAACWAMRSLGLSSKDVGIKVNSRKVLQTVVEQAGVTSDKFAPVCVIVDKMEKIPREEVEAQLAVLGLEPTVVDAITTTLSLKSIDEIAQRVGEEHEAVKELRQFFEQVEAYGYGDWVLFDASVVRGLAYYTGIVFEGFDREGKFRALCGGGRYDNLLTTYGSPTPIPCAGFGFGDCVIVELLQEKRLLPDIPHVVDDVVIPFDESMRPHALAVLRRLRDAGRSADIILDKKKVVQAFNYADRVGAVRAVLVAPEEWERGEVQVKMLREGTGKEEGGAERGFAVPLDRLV

CoaBC: 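Coenzyme A biosynthesis protein CoaBC, Mycobacterium tuberculosis (UniProt P9WNZ1). Enzyme assay of CoaBC with a phosphate dye (Biomol Green) read at 650 nm. Tested at 30 µM. Direction is inferred from only a few compounds that gave an IC50; most scored high, so higher reads as stronger inhibition. Most strong results did not repeat in a second test. Size under these conditions: about 67,000 compounds, about 40 of them at 50% or above in at least one test.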
MtTrpRS: 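Enzyme assay of tryptophanyl-tRNA synthetase; the read-out is not stated. Target: Tryptophan-tRNA ligase, Mycobacterium tuberculosis (UniProt P9WFT3). Tested at 10 µM. Direction is not recorded; retested compounds ran higher, which suggests that high means inhibition. Of about 65,000 compounds tested this way, about 64 (0.098%) reached 50% or more in at least one test.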
ClpP1P2: 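ClpP1P2, Mycobacterium tuberculosis (UniProt P9WPC5 and UniProt P9WPC3). Protease assay of ClpP1P2, read by the AMC dye that it sets free. Compounds at 50 µM. Direction is inferred from only a few compounds that gave an IC50; most scored high, so higher reads as stronger inhibition. Most other retested compounds had strongly negative values. Of about 69,000 compounds tested this way, about 10 (0.015%) reached 50% or more in at least one test.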
LiHisRS: 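Enzyme assay of histidyl-tRNA synthetase; the read-out is not stated. Target: Histidine-tRNA ligase, Leishmania infantum (UniProt A4I591). Tested at 30 µM. The record gives no direction; compounds that gave an IC50 in retests scored well above the rest, so higher reads as stronger inhibition. The assay is labelled LdHisRS but filed under L. infantum. About 69,000 compounds were tested under these conditions; 0.6% (about 410) showed 50% or more at least once.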
TcHisRS: 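Histidine-tRNA ligase, Trypanosoma cruzi CL Brener (UniProt Q4DA54). Enzyme assay of histidyl-tRNA synthetase; the read-out is not stated. Concentration: 30 µM. The record gives no direction; compounds that gave an IC50 in retests scored well above the rest, so higher reads as stronger inhibition. Of about 69,000 compounds tested this way, about 31 (0.045%) reached 50% or more in at least one test.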

Results are given as percent effect.
How 0% and 100% were set is not recorded. Most values in the screen are low, and negative values occur.
The compounds are a random part of those screened.
A dash means the value is not listed here; it may have been measured.

structure	CoaBC	MtTrpRS	ClpP1P2	LiHisRS	TcHisRS
O=C(Nc1ccc(-c2csnn2)cc1)N1CCCC1	-5.048	-3.653	-5.957	10.42	7.595
CC(C)c1cc(C(=O)NCCN2CCCCC2CO)on1 (centres undefined)	-1.459	3.25	8.129	17.2	5.699
OCCN1CCC2(CCc3cc(-c4ccoc4)ccc32)CC1	-38.73	2.562	-4.246	24	11.49
CN(C)C(=O)Cc1ccccc1NCc1noc(-c2ccccc2)n1	7.253	3.339	-6.549	17.14	6.186
COc1ccccc1N1CCN(C(=O)CCCS(N)(=O)=O)C(C)C1 (centres undefined)	2.36	-5.21	-22.21	9.167	-6.763
CCCNC(=O)c1cccc(CNCc2csc(CC)n2)c1	0.8963	-0.5141	9.952	19.75	10.43
CCOC(=O)CC1CCCCN1C(=O)c1cnc(C)cn1 (centres undefined)	7.025	-0.09671	11.19	10.67	2.717
COC(=O)CCC(=O)NC1CCCc2cc(OC(F)F)ccc21 (centres undefined)	6.723	-5.66	3.727	9.402	2.222
CNc1ncc(CN(C)C(=O)c2c[nH]nc2-c2cccc(F)c2)cn1	3.23	1.22	2.283	9.836	5.579
CCCC(NC(=O)c1cnccn1)c1nnc2ccccn12 (centres undefined)	8.471	-6.762	5.092	21.92	1.587
CCN1CCC(NC(=O)CN2CCCCC2Cn2cc(C)cn2)CC1 (centres undefined)	-0.2611	-3.216	23.46	5.405	0.3759
CCCn1ncc2c(C(=O)Nc3cnn(CC)c3C)cc(C3CC3)nc21	9.031	0.9167	6.627	20	5.376
CCNC(=O)c1nc2c(s1)CCCN2S(C)(=O)=O	2.157	4.722	6.719	11.32	2.703
Cc1cccnc1CNC(=O)NC(C)Cc1c(C)nn(C)c1C (centres undefined)	10.71	-7.243	-1.964	9.821	3.448
COCc1nc(N(C)C)ncc1C(=O)Nc1ccc(Cl)cc1	-0.9238	-1.295	-0.4899	10.34	0
CCOCC(O)CN1CCN(C(=O)c2ccc(N(C)C)nc2)CC1 (centres undefined)	-4.487	-5.556	-16.15	6.849	8.867
N#Cc1ccc(CN2CCN(c3ccncc3Cl)CC2=O)cc1	2.232	-2.58	-4.27	3.125	8.287
Cc1cc(C(=O)N2CCNC(=O)C2)c(C)n1CC(F)(F)F	15.58	2.878	-2.342	13.73	11.11
O=C1OCCC1N1CCN(C(=O)Cc2ccccc2Cl)CC1 (centres undefined)	14.78	-1.836	-33.57	6.14	1.453
c1cnc(N2CCCn3c(nnc3Cn3cccn3)C2)nc1	-14.58	-6.135	0.4683	17.95	10.16
CNC(=O)[C@@H](C1CCCCC1)N1CCC[C@H]1C(=O)NCCN1CCCC1	4.74	3.539	10.27	13.89	-0.9901
CCOc1ccc(CC(CNC(=O)c2ccc(C)o2)C(N)=O)cc1 (centres undefined)	5.832	7.567	5.019	14.88	0
Cc1nn(C)c(C)c1C1CCCN1CC(=O)N(C)c1nccs1 (centres undefined)	8.051	-2.637	-6.373	10	6.087
CC(=O)Nc1nc(C)c(S(=O)(=O)NCCc2ccccn2)s1	-0.6024	-	-2.296	8.571	2.26
O=C(Cc1ccccc1F)N1CCN(Cc2noc(C3CC3)n2)CC1	0.6361	16.23	3.604	0.8696	-1.127
Cc1cccc(C(=O)N2CCCCC2c2ccc(CN(C)C)cc2)n1 (centres undefined)	-15.79	2.59	5.861	13.33	-1.653
CCCSc1ncccc1C(=O)NCc1ccc(S(N)(=O)=O)cc1	6.311	-	5.276	11.88	0
COc1ccc(C(=O)Cn2cnnc2[S+](C)[O-])cc1Cl (centres undefined)	3.863	-1.143	-2.408	14.75	3.488
Cc1ncc2c(n1)CCCC2NC(=O)c1cnn(Cc2ccccc2)c1 (centres undefined)	3.614	-0.1942	-2.132	23.08	11.88
Cc1c(CN2CCCCC2)c(O)n(CCCO)c(=O)c1C#N	2.086	-	0.7278	45.36	5.78
CC1COCCN1C(=O)c1ccc(=O)n(Cc2ccccc2)n1 (centres undefined)	0.4808	1.712	-7.175	6.25	7.595
Cn1cnc2ccc(NC(=O)CC3CCN(S(C)(=O)=O)CC3)cc21	-1.84	3.87	36.74	-1.449	4.545
CN(C)C(C(=O)N1CCN(C(=O)c2ccc[nH]2)CC1)c1ccc(F)cc1 (centres undefined)	0.2445	0.7452	-2.367	-2.74	3.279
Cc1cnc(NC2CCc3c(ccc(=O)n3C)C2)nc1 (centres undefined)	-3.14	-6	4.423	13.13	4.516
O=C(NCCc1ccccc1)NCCN1CCC(c2cccs2)CC1	6.859	-0.5869	-10.89	26.97	13.57
Cc1nn(C)c2cnn(CC(=O)NCc3ccccc3F)c12	-3.002	5.181	2.572	5.172	2.609
COC(=O)c1cccn1C1CCN(CC(=O)NC2CCCCC2)CC1	-2.372	1.394	-4.039	21.88	4.943

For reference, 5 entries once more:

structure,CoaBC,MtTrpRS,ClpP1P2,LiHisRS,TcHisRS
Cc1cc(C(=O)N2CCNC(=O)C2)c(C)n1CC(F)(F)F,15.58,2.878,-2.342,13.73,11.11
CCCSc1ncccc1C(=O)NCc1ccc(S(N)(=O)=O)cc1,6.311,-,5.276,11.88,0
Cc1cnc(NC2CCc3c(ccc(=O)n3C)C2)nc1 (centres undefined),-3.14,-6,4.423,13.13,4.516
CC(C)c1cc(C(=O)NCCN2CCCCC2CO)on1 (centres undefined),-1.459,3.25,8.129,17.2,5.699
CCNC(=O)c1nc2c(s1)CCCN2S(C)(=O)=O,2.157,4.722,6.719,11.32,2.703